Assay results from PubChem BioAssay AID1671190 (National Center for Advancing Translational Sciences (NCATS), 2021).
“And” between values parts separate entries of the source, which are not always exact repeats. Equal values may be shown once. Hit rate of the full screen: of about 580,000 compounds, about 6,100 (1.1%) were called active. Inconclusive results, whose numbers are uncertain, are shown with a selection of clear calls. Calls follow the shape of the dose curve; as a rule, active = well fitted inhibition curve with a large enough effect; inconclusive = small, poorly fitted or top-dose-only effect, or another doubt; inactive = no such curve, though single readings can be large or run the other way. A potency beside an inconclusive call is a rough fit, not a confirmed value.

By UniProt entry, the sequences of proteins in these tests, tags left out. Where a name states a change or a piece, a line headed by the entry shows the natural chain unless it says otherwise.
UniProt P18054: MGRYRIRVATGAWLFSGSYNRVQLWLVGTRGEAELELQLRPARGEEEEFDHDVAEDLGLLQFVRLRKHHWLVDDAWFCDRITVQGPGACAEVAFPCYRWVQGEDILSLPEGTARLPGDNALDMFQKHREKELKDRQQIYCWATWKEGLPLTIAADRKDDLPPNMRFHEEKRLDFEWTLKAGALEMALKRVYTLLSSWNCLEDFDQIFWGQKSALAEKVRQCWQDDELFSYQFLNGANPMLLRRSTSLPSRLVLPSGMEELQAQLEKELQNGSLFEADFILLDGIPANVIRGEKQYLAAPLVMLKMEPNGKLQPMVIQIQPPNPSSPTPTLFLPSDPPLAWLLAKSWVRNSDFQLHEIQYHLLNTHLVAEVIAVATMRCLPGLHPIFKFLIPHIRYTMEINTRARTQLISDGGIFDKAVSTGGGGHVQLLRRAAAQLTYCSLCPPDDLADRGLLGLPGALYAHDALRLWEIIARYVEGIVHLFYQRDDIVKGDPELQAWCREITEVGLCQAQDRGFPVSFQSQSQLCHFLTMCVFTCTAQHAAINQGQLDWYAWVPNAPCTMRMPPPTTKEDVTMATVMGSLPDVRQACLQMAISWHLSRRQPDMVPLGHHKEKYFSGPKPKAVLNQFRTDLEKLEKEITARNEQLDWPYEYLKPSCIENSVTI

biological target: Polyunsaturated fatty acid lipoxygenase ALOX12 (Homo sapiens) (UniProt P18054); experiment: Primary qHTS assay for inhibitors of human arachidonate 12S-lipoxygenase (ALOX12): Round 2; conditions: purified 12hLO, xylenol orange hydroperoxide absorbance; series mostly up to 108 µM
Outline: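 Purified human 12hLO at 150 nM in 25 mM Hepes, 0.01% Triton X-100, pH 7.0, preincubated 15 min at room temperature with compound. Reaction started with 40 uM arachidonic acid, 30 min at room temperature. Hydroperoxide measured by Fe-xylenol orange, 573/405 nm absorbance ratio.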
Potency is read from the fitted curve at half-maximal effect.

Row | Structure (SMILES) | Potency
1 | Cn1c(=O)c2c(-c3ccc(Br)cc3)n(Cc3ccc(F)cc3)cc2n(C)c1=O | inconclusive: 50.1 µM [inhibitor, partial curve, poor fit] and inconclusive: 112 µM [inhibitor, partial curve, poor fit]
2 | COc1ccc(-c2nc(CNC(=O)Nc3ccc(C)cc3)c(C)o2)cc1 | inconclusive: 44.7 µM [inhibitor, partial curve, poor fit]
3 | CC(C)CN(C(=O)CN1c2ccccc2CC1C)c1c(N)n(Cc2ccccc2)c(=O)[nH]c1=O (stereo not given) | inconclusive: 31.6 µM [inhibitor, partial curve, poor fit]
4 | C=CCSc1nnc(C)c(/C=C/Nc2ccc(Cl)cc2)n1 | inconclusive: 100 µM [inhibitor, single point]
5 | COc1cc(-c2cc(C)c3cccc(OC)c3n2)cc2c1OCCN(C(=O)CCn1nc(C)cc1C)C2 | inconclusive: 100 µM [inhibitor, single point]
6 | CCN1C(=NCC(C)C)N[C@@H](c2cccc(C(F)(F)F)c2)C(C(=O)OC)=C1C | inconclusive: 8.91 µM [inhibitor, full curve, poor fit]
7 | O=C(NCC1CC1)c1ccc2c(c1)OCCN(c1ccccc1)C2 | inconclusive: 112 µM [inhibitor, partial curve, poor fit]
8 | CCCNS(=O)(=O)c1cc(CN2C(=O)c3cccnc3C2=O)ccc1OC | inconclusive: 44.7 µM [inhibitor, partial curve, poor fit]
9 | COc1cc(C2OCC3C(c4ccc(OC5OC(CO)C(O)C(O)C5O)c(OC)c4)OCC23)ccc1O (stereo not given) | active: 5.01 µM
10 | CCCNC(=O)c1c(-n2cnnn2)sc2c1CCC2 | inconclusive: 35.5 µM [inhibitor, partial curve, poor fit]
11 | COc1cc(CCCN2CCNC[C@H]2Cc2cccc3ccccc23)cc(OC)c1OC | inconclusive: 2 µM [inhibitor, full curve, poor fit]
12 | COCCN(C(=O)COC(=O)/C(=C/c1ccccc1)NC(C)=O)c1c(N)n(Cc2ccccc2)c(=O)[nH]c1=O | inconclusive: 89.1 µM [inhibitor, single point]
13 | O=c1ccsc2ccccc12 | inactive
14 | O=S(=O)(Nc1ccccc1Cl)c1ccc2[nH]c(=S)oc2c1 | inconclusive: 44.7 µM [inhibitor, partial curve, poor fit]
15 | Cc1ccc(NC(=O)C2C(c3ccccc3)C=CC(c3ccccc3)C2C(=O)O)cc1 (stereo not given) | inactive
16 | O=C(NNC(=S)Nc1cccc(C(F)(F)F)c1)c1ccc(Cl)cc1Cl | inconclusive: 44.7 µM [inhibitor, partial curve, poor fit]
17 | O=C(O)CNS(=O)(=O)c1ccc(OC(F)(F)F)cc1 | inactive
18 | CC(=O)Nc1cccc(-c2cc(C)c3cc4c(cc3n2)OCO4)c1 | inconclusive: 12.6 µM [inhibitor, partial curve]
19 | O=C(NC1CCN(c2cnn(CC3CC3)c(=O)c2)CC1)c1ccc2c(c1)OCO2 | inactive
20 | CCOc1cc(C2c3c(oc4ccccc4c3=O)C(=O)N2Cc2ccc(OC)cc2)ccc1O (stereo not given) | inconclusive: 126 µM [inhibitor, single point]

An excerpt of these results, as tab-separated lines:
Row	Structure (SMILES)	Potency
4	C=CCSc1nnc(C)c(/C=C/Nc2ccc(Cl)cc2)n1	inconclusive: 100 µM [inhibitor, single point]
5	COc1cc(-c2cc(C)c3cccc(OC)c3n2)cc2c1OCCN(C(=O)CCn1nc(C)cc1C)C2	inconclusive: 100 µM [inhibitor, single point]
11	COc1cc(CCCN2CCNC[C@H]2Cc2cccc3ccccc23)cc(OC)c1OC	inconclusive: 2 µM [inhibitor, full curve, poor fit]
12	COCCN(C(=O)COC(=O)/C(=C/c1ccccc1)NC(C)=O)c1c(N)n(Cc2ccccc2)c(=O)[nH]c1=O	inconclusive: 89.1 µM [inhibitor, single point]
13	O=c1ccsc2ccccc12	inactive
16	O=C(NNC(=S)Nc1cccc(C(F)(F)F)c1)c1ccc(Cl)cc1Cl	inconclusive: 44.7 µM [inhibitor, partial curve, poor fit]
17	O=C(O)CNS(=O)(=O)c1ccc(OC(F)(F)F)cc1	inactive
18	CC(=O)Nc1cccc(-c2cc(C)c3cc4c(cc3n2)OCO4)c1	inconclusive: 12.6 µM [inhibitor, partial curve]
19	O=C(NC1CCN(c2cnn(CC3CC3)c(=O)c2)CC1)c1ccc2c(c1)OCO2	inactive

Later entries:

Row | Structure (SMILES) | Potency
21 | Cc1cccc(Nc2c(-c3ccsc3)nc3nc(C)cc(C)n23)c1 | inconclusive: 126 µM [inhibitor, partial curve, poor fit]
22 | COc1ccccc1/C=C/C(=O)OCC(=O)c1cc(C)n(C)c1C | inactive
23 | Cc1ccc(/C=N/c2sc(Cc3ccccc3)c(C)c2C(N)=O)o1 | inconclusive: 31.6 µM [inhibitor, partial curve]
24 | CCN(CC)S(=O)(=O)c1ccc(N(C)C)c(NS(=O)(=O)c2cc(C)ccc2C)c1 | inconclusive: 70.8 µM [inhibitor, partial curve, poor fit]
25 | COc1ccc(S(=O)(=O)N2CCc3ccccc3C2)cc1 | inconclusive: 141 µM [inhibitor, partial curve, poor fit]
26 | COc1ccc(NS(=O)(=O)c2ccc(-c3n[nH]c(=S)n3Cc3ccccc3)cc2)cc1 | inconclusive: 31.6 µM [inhibitor, partial curve, poor fit]
27 | O=C(O)C1C2C=CC(C2)C1C(=O)Nc1ccccc1C(F)(F)F (stereo not given) | inconclusive: 112 µM [inhibitor, single point]
28 | O=c1nc2onnc2c(C=NO)[nH]1 | inconclusive: 6.31 µM [inhibitor, full curve, poor fit]
29 | COc1ccc(-c2cc3c4nnc(SCC(=O)Nc5cc(F)ccc5F)n4ccn3n2)cc1 | inactive
30 | Cc1nc(-c2cccc(Cl)c2)n(CC(=O)Nc2ccc3c(c2)OCO3)c(=O)c1CCO | inconclusive: 10 µM [inhibitor, full curve, poor fit]
31 | N#Cc1c(N)n[nH]c1CCCNC(=O)c1cc(-c2ccncc2)nc2ccccc12 | inactive
32 | CCN1CCN(Cc2ccc(NC(=O)c3cc(NC(=O)c4ccno4)cc(OC)c3)cc2C(F)(F)F)CC1 | inconclusive: 2.82 µM [inhibitor, full curve]
33 | O=C(CSc1nnc(COc2ccc(Cl)cc2)n1Cc1ccco1)N1CCNC1=O | inconclusive: 44.7 µM [inhibitor, full curve, poor fit]
34 | COc1ccc(/C=C/c2ccncc2)cc1OC | inactive
35 | CCC1CN(Cc2cn[nH]c2-c2ccc(F)cc2)Cc2cc(OC)ccc2O1 (stereo not given) | inconclusive: 112 µM [inhibitor, single point]
36 | O=C(O)c1ccccc1C(=O)N1CCN(c2ncccn2)CC1 | inactive
37 | ClC(=C\c1ccccc1)/C=N/N1CCN(Cc2ccc(Cl)cc2)CC1 | inconclusive: 44.7 µM [inhibitor, partial curve, poor fit]
38 | COc1ccc(C(=O)CSc2nnc(NC(=O)C3CC(=O)N(c4cccc(OC)c4)C3)s2)cc1 (stereo not given) | inactive
39 | COc1cc2oc(=O)cc(-c3cccc(-c4cccc(C)c4)c3)c2c(OC)c1OC | inconclusive: 79.4 µM [inhibitor, single point]
40 | COc1ccc(-c2nn(-c3ccccc3)cc2/C=N/N=C(N)N)cc1OC | inconclusive: 63.1 µM [inhibitor, partial curve, poor fit]
